Patent US20210121505A1, “COMPOSITIONS AND METHODS FOR TREATING INFLAMMATORY BOWEL DISEASES” (Seres Therapeutics, Inc., priority 2018, published 2021)
For at least one compound, name, drawing or mass did not settle the structure.

Legend:
[1] = tested on: LPS-stimulated peripheral blood mononuclear cells (PBMCs); assay: TNF-α and IL-10 secretion assay, LPS-stimulated PBMCs; format: cell-based, Human; details: LPS-activated PBMCs; bile acid 12.5, 25, 50 μM; LPS 1 ng/mL; FIGS. 4A and 4B
Procedure: To better understand the possible relationship between the increased level of certain secondary bile acids and ulcerative colitis remission, monocytes and PBMCs were activated with LPS in the presence of varying concentrations of different primary and secondary bile acids in their conjugated and unconjugated forms. The amount of TNF-α and IL-10 produced by the activated cells was measured as described below.
Human buffy coat was obtained from Bioreclamation and shipped overnight on ice. Buffy coat was diluted 1:1 with PBS and layered on top of a Ficoll-Paque (GE Healthcare Cat #17-1440-03) in 50 mL falcon tubes. Samples were spun at 500×g for 20 min at room temperature with no brake. PBMCs were aspirated at the […] gradient layer and washed 3 times with PBS. Cells were counted with a hemocytometer to determine cell viability and concentration. Cells were plated onto 96 well plate and incubated at 37 C, 5% CO2 for 1 hour. Following this, bile acids were added at a final concentration of 12.5 μM, 25 μM and 50 μM for one hour prior to addition of LPS (1 ng/mL). After incubation of 16-20 hours, the cell culture media were collected for cytokine analysis. Cytokines were assayed using the Milliplex Human Cytokine kit (Luminex; Millipore), assaying IL-10 and TNF-α. […]

LPS-stimulated monocytes = assay: TNF-α and IL-10 secretion assay, LPS-stimulated monocytes; format: cell-based, Human; details: bile acid 12.5, 25, 50 μM, LPS 1 ng/mL, FIGS. 5A and 5B
[2] = tested on: intestinal epithelial cells (HT29); assay: IL-8 secretion assay, TNF-α-stimulated intestinal epithelial cells; format: cell-based; details: bile acid 62.5, 125, 250 μM, 1.25 ng/mL TNF-α, FIG. 6
Procedure: Since IBD primarily affects the intestinal tissues, whether the anti-inflammatory effects observed in monocytes and PBMCs were also true in intestinal epithelial cells (HT29) was assessed as described below.
HT29 cells, cultured in McCoys Medium supplemented with 10% FBS, GlutaMAX and Pen/Strep were plated at a density of 50 k cells/well in 96-well format and allowed to grow for 5 days until fully confluent. Culture medium was changed every two days. On day 5, cells were pre-treated for 1 hour with 250 μM, 125 μM or 62.5 μM bile acid compounds before exposure to 1.25 ng/mL TNF-α. Cells were incubated overnight (16 h) and culture supernatants were collected for IL-8 protein quantification by ELISA. IL-8 levels of test samples were normalized to inflammatory controls, DMSO pre-treated samples (i.e., no bile acids) that were exposed to the 1.25 ng/mL TNF-α.

With `C[C@H](CCC(=O)O)[C@H]1CC[C@H]2[C@@H]3[C@@H](O)C[C@@H]4C[C@H](O)CC[C@]4(C)[C@H]3CC[C@]12C` [UDCA, ursodeoxycholic acid] the “anti-inflammatory effects (higher IL-10, lower TNF-α)” value [1] was “no anti-inflammatory effects”, the “anti-inflammatory effects (higher IL-10, lower TNF-α)” value (LPS-stimulated monocytes) was “no anti-inflammatory effects” and the “anti-inflammatory effect on activated intestinal epithelial cells” value [2] was “no anti-inflammatory effect”. The IL-8 production ([2]; relative to no bile acid control) was “increase the production of IL-8”.
